# Measured values from the supplement of paper PMC8728848.
# Some of the results follow.
# B1: Protein L(B1-B4) (Finegoldia magna), Q51912 (protein)
# chain: KEETPETPETDSEEEVTIKANLIFANGSTQTAEFKGTFEKATSEAYAYADTLKKDNGEYTVDVADKGYTLNIKFAGKEKTPEEPKEEVTIKANLIYADGKTQTAEFKGTFEEATAEAYRYADALKKDNGEYTVDVADKGYTLNIKFAGKEKTPEEPKEEVTIKANLIYADGKTQTAEFKGTFEEATAEAYRYADLLAKENGKYTVDVADKGYTLNIKFAGKEKTPEEPKEEVTIKANLIYADGKTQTAEFKGTFAEATAEAYRYADLLAKENGKYTADLEDGGYTINIRFAG
# What was measured:
# Assay in all cases: glycan array binding signal (z-score within array); higher = stronger binding
# Settings in all cases: glycan notation: IUPAC condensed, linker removed
# [1] = molecular target: Gal(b1-3)[Fuc(a1-4)]GlcNAc(b1-6)GalNAc
# Method in brief: (§1)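 Glycan array data were curated from 3228 arrays in the Consortium for Functional Glycomics database and kept only where the protein sequence was available. Glycan names were converted to IUPAC-condensed notation, and columns mapping to the same glycan were averaged. The binding signal is a within-array Z-score, averaged across arrays of the same protein sequence at different concentrations or buffers and across linkers. Negative Z-scores can be read as non-binding.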
# [2] = molecular target: Gal(b1-3)[GlcNAc(b1-6)]GalNAc
# Method in brief: as §1
# [3] = molecular target: Gal(b1-3)[Neu5Ac(a2-6)]GalNAc
# Method in brief: as §1
# [4] = molecular target: Gal(b1-3)[Neu5Ac(a2-6)]GlcNAc(b1-4)Gal(b1-4)Glc
# Method in brief: as §1
# [5] = molecular target: Gal(b1-3)[Neu5Ac(b2-6)]GalNAc
# Method in brief: as §1
# [6] = molecular target: Gal(b1-4)Gal
# Method in brief: as §1
# [7] = molecular target: Gal(b1-4)GalNAc(a1-3)[Fuc(a1-2)]Gal(b1-4)GlcNAc
# Method in brief: as §1
# [8] = molecular target: Gal(b1-4)GalNAc(b1-3)[Fuc(a1-2)]Gal(b1-4)GlcNAc
# Method in brief: as §1
# [9] = molecular target: Gal(b1-4)Glc
# Method in brief: as §1
# [10] = molecular target: Gal(b1-4)Glc6S
# Method in brief: as §1
# [11] = molecular target: Gal(b1-4)GlcNAc
# Method in brief: as §1
# [12] = molecular target: Gal(b1-4)GlcNAc(a1-6)Gal(b1-4)GlcNAc
# Method in brief: as §1
# [13] = molecular target: Gal(b1-4)GlcNAc(b1-2)Man
# Method in brief: as §1
# [14] = molecular target: Gal(b1-4)GlcNAc(b1-2)Man(a1-3)Man(b1-4)GlcNAc(b1-4)GlcNAc
# Method in brief: as §1
# [15] = molecular target: Gal(b1-4)GlcNAc(b1-2)Man(a1-3)[Gal(b1-4)GlcNAc(b1-2)Man(a1-6)]Man(b1-4)GlcNAc(b1-4)GlcNAc
# Method in brief: as §1
# [16] = molecular target: Gal(b1-4)GlcNAc(b1-2)Man(a1-3)[Gal(b1-4)GlcNAc(b1-2)Man(a1-6)]Man(b1-4)GlcNAc(b1-4)[Fuc(a1-6)]GlcNAc
# Method in brief: as §1
# [17] = molecular target: Gal(b1-4)GlcNAc(b1-2)Man(a1-3)[Gal(b1-4)GlcNAc(b1-2)Man(a1-6)][Gal(b1-4)GlcNAc(b1-4)]Man(b1-4)GlcNAc(b1-4)[Fuc(a1-6)]GlcNAc
# Method in brief: as §1
# [18] = molecular target: Gal(b1-4)GlcNAc(b1-2)Man(a1-3)[Gal(b1-4)GlcNAc(b1-2)Man(a1-6)][GlcNAc(b1-4)]Man(b1-4)GlcNAc(b1-4)[Fuc(a1-6)]GlcNAc
# Method in brief: as §1
# [19] = molecular target: Gal(b1-4)GlcNAc(b1-2)Man(a1-3)[GlcNAc(b1-2)Man(a1-6)]Man(b1-4)GlcNAc(b1-4)GlcNAc
# Method in brief: as §1
# [20] = molecular target: Gal(b1-4)GlcNAc(b1-2)Man(a1-3)[GlcNAc(b1-4)][Gal(b1-4)GlcNAc(b1-2)Man(a1-6)]Man(b1-4)GlcNAc(b1-4)GlcNAc
# Method in brief: as §1
# [21] = molecular target: Gal(b1-4)GlcNAc(b1-2)Man(a1-3)[Man(a1-6)]Man(b1-4)GlcNAc(b1-4)GlcNAc
# Method in brief: as §1
# [22] = molecular target: Gal(b1-4)GlcNAc(b1-2)Man(a1-6)Man(b1-4)GlcNAc(b1-4)GlcNAc
# Method in brief: as §1
# [23] = molecular target: Gal(b1-4)GlcNAc(b1-2)Man(a1-6)[GlcNAc(b1-2)Man(a1-3)]Man(b1-4)GlcNAc(b1-4)GlcNAc
# Method in brief: as §1
binder,measurement,setting,value
B1,glycan array binding signal (z-score),[1],1.59
same,glycan array binding signal (z-score),[2],0.254
same,glycan array binding signal (z-score),[3],-0.377
same,glycan array binding signal (z-score),[4],0.368
same,glycan array binding signal (z-score),[5],-0.032
same,glycan array binding signal (z-score),[6],0.033
same,glycan array binding signal (z-score),[7],-0.634
same,glycan array binding signal (z-score),[8],-0.985
same,glycan array binding signal (z-score),[9],-0.492
same,glycan array binding signal (z-score),[10],1.07
same,glycan array binding signal (z-score),[11],-0.792
same,glycan array binding signal (z-score),[12],-0.851
same,glycan array binding signal (z-score),[13],0.361
same,glycan array binding signal (z-score),[14],-0.416
same,glycan array binding signal (z-score),[15],-0.396
same,glycan array binding signal (z-score),[16],0.291
same,glycan array binding signal (z-score),[17],-0.33
same,glycan array binding signal (z-score),[18],-0.633
same,glycan array binding signal (z-score),[19],-1.08
same,glycan array binding signal (z-score),[20],-0.936
same,glycan array binding signal (z-score),[21],-0.017
same,glycan array binding signal (z-score),[22],-0.772
same,glycan array binding signal (z-score),[23],-0.232

# In a second layout: results already given.
binder	measurement	setting	value
B1	glycan array binding signal (z-score)	[5]	-0.032
same	glycan array binding signal (z-score)	[6]	0.033
